Measured values published in paper PMC5824891.
No constants are given. Whether binding was seen depends on the method and setting. In cells and extracts the contact can be indirect. Where a sequence is shown, tags or fusion partners need not be part of it. Values belong to the binder of their own block, whether it stands above or below them.

How the values were obtained:
GFP-tagged Vps16 = biological target: T1, GFP-tagged Vps16 (UniProt Q9H269); test: co-IP; IP of GFP-tagged subunits from HeLa cells co-expressing HA-VIPAS39 alone (left panel) or HA-VIPAS39 and HA-Vps33B (right panel), blot for HA; lysis buffer 40 mM TRIS pH 7.4, 100 mM NaCl, 0.1% TX-100, 5 mM EDTA; also read after prolonged exposure of the blot
T1 sequence: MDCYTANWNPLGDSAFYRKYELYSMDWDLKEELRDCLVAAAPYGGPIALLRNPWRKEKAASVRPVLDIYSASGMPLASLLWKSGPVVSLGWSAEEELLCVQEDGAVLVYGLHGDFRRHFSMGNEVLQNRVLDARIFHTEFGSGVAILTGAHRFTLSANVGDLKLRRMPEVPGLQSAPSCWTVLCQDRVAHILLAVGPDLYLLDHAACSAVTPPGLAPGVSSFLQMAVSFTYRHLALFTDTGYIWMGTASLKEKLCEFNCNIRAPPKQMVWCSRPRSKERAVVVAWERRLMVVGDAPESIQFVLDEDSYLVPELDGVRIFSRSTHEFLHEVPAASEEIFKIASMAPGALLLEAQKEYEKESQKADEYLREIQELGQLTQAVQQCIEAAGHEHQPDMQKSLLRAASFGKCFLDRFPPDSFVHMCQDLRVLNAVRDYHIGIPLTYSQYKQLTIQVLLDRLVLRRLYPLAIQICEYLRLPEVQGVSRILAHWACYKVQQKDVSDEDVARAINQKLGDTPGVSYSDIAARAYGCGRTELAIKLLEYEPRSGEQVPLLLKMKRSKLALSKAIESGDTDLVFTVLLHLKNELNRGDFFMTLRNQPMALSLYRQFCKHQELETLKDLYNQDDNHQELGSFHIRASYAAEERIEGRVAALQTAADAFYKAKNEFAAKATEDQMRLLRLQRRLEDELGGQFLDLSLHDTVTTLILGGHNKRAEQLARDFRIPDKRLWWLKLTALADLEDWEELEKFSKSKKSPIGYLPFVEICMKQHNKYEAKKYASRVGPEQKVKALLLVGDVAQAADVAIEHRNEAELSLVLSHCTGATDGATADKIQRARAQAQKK

GFP-tagged Vps8 = biological target: T2, GFP-tagged Vps8 (UniProt Q8N3P4); test: as above
T2 sequence: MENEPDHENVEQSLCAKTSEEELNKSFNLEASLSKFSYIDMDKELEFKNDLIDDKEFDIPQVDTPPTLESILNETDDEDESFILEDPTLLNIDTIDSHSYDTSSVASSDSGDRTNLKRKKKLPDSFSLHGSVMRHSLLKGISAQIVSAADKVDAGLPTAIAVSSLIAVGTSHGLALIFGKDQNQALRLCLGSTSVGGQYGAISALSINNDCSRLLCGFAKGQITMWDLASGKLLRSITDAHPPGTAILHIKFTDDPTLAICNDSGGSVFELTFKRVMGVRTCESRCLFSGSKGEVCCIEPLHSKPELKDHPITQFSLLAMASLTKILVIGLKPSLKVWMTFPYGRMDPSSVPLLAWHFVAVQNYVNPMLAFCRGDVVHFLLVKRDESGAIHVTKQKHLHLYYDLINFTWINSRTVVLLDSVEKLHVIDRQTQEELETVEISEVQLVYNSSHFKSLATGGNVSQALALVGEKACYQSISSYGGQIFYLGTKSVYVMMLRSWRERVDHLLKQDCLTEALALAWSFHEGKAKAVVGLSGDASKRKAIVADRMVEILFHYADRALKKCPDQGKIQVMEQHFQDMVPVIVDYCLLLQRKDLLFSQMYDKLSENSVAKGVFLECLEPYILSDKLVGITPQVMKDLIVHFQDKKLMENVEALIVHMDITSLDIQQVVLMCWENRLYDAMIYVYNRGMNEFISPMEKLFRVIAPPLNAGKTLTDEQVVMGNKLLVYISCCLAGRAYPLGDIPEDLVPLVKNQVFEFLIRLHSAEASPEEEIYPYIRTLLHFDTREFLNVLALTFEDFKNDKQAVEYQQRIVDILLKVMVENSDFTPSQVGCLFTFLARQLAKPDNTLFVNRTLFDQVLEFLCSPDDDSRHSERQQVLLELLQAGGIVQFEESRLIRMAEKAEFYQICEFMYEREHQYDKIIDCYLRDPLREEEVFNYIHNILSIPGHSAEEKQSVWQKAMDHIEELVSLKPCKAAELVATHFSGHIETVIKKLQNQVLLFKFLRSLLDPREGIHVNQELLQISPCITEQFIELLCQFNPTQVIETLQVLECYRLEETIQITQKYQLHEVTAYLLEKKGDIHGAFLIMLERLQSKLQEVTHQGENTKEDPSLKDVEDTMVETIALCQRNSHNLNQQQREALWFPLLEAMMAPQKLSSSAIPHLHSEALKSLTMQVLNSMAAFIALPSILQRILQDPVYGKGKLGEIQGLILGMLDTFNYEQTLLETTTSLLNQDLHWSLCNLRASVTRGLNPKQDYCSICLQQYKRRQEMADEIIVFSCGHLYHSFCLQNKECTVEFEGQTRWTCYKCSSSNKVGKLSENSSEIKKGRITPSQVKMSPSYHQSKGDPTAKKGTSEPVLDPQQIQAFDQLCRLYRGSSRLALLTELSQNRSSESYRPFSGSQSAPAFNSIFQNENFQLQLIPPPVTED

binding (GFP-tagged Vps16): no binding
binding (GFP-tagged Vps8): no binding
B1: HA-VIPAS39 (protein, UniProt Q9H9C1 1-493)
chain: MNRTKGDEEEYWNSSKFKAFTFDDEDDELSQLKESKRAVNSLRDFVDDDDDDDLERVSWSGEPVGSISWSIRETAGNSGSTHEGREQLKSRNSFSSYAQLPKPTSTYSLSSFFRGRTRPGSFQSLSDALSDTPAKSYAPELGRPKGEYRDYSNDWSPSDTVRRLRKGKVCSLERFRSLQDKLQLLEEAVSMHDGNVITAVLIFLKRTLSKEILFRELEVRQVALRHLIHFLKEIGDQKLLLDLFRFLDRTEELALSHYREHLNIQDPDKRKEFLKTCVGLPFSAEDSAHIQDHYTLLERQIIIEANDRHLESAGQTEIFRKHPRKASILNMPLVTTLFYSCFYHYTEAEGTFSSPVNLKKTFKIPDKQYVLTALAARAKLRAWNDVDALFTTKNWLGYTKKRAPIGFHRVVEILHKNNAPVQILQEYVNLVEDVDTKLNLATKFKCHDVVIDTYRDLKDRQQLLAYRSKVDKGSAEEEKIDALLSSSQIRWKN

binding (GFP-tagged Vps16): no binding
binding (GFP-tagged Vps8): no binding
B2: HA-Vps33B (protein, UniProt Q9H267 1-617)
chain: MAFPHRPDAPELPDFSMLKRLARDQLIYLLEQLPGKKDLFIEADLMSPLDRIANVSILKQHEVDKLYKVENKPALSSNEQLCFLVRPRIKNMRYIASLVNADKLAGRTRKYKVIFSPQKFYACEMVLEEEGIYGDVSCDEWAFSLLPLDVDLLSMELPEFFRDYFLEGDQRWINTVAQALHLLSTLYGPFPNCYGIGRCAKMAYELWRNLEEEEDGETKGRRPEIGHIFLLDRDVDFVTALCSQVVYEGLVDDTFRIKCGSVDFGPEVTSSDKSLKVLLNAEDKVFNEIRNEHFSNVFGFLSQKARNLQAQYDRRRGMDIKQMKNFVSQELKGLKQEHRLLSLHIGACESIMKKKTKQDFQELIKTEHALLEGFNIRESTSYIEEHIDRQVSPIESLRLMCLLSITENGLIPKDYRSLKTQYLQSYGPEHLLTFSNLRRAGLLTEQAPGDTLTAVESKVSKLVTDKAAGKITDAFSSLAKRSNFRAISKKLNLIPRVDGEYDLKVPRDMAYVFGGAYVPLSCRIIEQVLERRSWQGLDEVVRLLNCSDFAFTDMTKEDKASSESLRLILVVFLGGCTFSEISALRFLGREKGYRFIFLTTAVTNSARLMEAMSEVKA
